Laboratory results: patent US6001331A, “Method of imaging amyloid deposits” (Warner-Lambert Company, priority 1998, dated 1999)
At least one compound was matched to its structure with a doubt left.

Target: Insulin amyloid aggregates
Assay: Competition assay with Thioflavin T (ThT) for binding to insulin amyloid aggregates, fluorescence 96-well plate
Details: 0.5 μM ThT, 2 μg per well fibrils, 25 mM sodium phosphate pH 6.0, room temperature
Protocol: Burke M. J. and Rougevie M. A., Cross-β Protein Structures. I. Insulin Fibrils. […] Briefly, lyophilized insulin protein powder dissolved at 10 mg/mL in 50 mM HCl was alternately heated to 95° C. and frozen in dry ice to form amyloid aggregates.
The ability of compounds of Formula I to compete with Thioflavin T (ThT) for binding to amyloid aggregates was measured using fluorescence in a 96-well fluorescence plate assay. As a compromise between sensitivity and signal and to facilitate comparisons between different amyloid fibrils, ThT is present at a concentration equal to the Kmapp of the particular amyloid fibril type and fibril concentrations yielding a similar fluorescence intensity are used. Insulin: 0.5 μM ThT, 2 μg per well. β(1-40): 20 μM ThT, 5 μg/well. All solutions are in 25 mM sodium phosphate buffer, pH 6.0, and the assay is performed at room temperature.
Using a multichannel pipettor, 100 μL of dilutions of the compound to be tested (0.001-30 μM final concentration in 3-fold steps) are placed in the bottom of Corning U-well polystyrene plates (Corning Company, Corning, N.Y.). 50 μL of ThT are then added to each well. […] ThT dye blanks were used to correct for the minimal fluorescence background which are subtracted from all data.
Results are expressed as % maximal fluorescence (no competing compound). […]

SMILES	IC50
CCCCCCC[n+]1c(C=Cc2ccc(N(C)C)cc2)sc2ccccc21 [Example 12, (E)-2-[2-(4-Dimethylaminophenyl)vinyl]-3-heptylbenzothiazol-3-ium iodide]	83 nM
CN(C)c1ccc(/N=N/c2nc3ccccc3s2)cc1 [Example 47, [4-(Dimethylamino)phenylazo]benzothiazole]	1200 nM
